Experimental findings from the supplement of paper PMC11006884 are described below.

The chains behind the UniProt entries cited, without tags or fusion partners. Where a name states a change or a piece, a line headed by the entry shows the natural chain unless it says otherwise.
UniProt P23258, whole entry, looked up: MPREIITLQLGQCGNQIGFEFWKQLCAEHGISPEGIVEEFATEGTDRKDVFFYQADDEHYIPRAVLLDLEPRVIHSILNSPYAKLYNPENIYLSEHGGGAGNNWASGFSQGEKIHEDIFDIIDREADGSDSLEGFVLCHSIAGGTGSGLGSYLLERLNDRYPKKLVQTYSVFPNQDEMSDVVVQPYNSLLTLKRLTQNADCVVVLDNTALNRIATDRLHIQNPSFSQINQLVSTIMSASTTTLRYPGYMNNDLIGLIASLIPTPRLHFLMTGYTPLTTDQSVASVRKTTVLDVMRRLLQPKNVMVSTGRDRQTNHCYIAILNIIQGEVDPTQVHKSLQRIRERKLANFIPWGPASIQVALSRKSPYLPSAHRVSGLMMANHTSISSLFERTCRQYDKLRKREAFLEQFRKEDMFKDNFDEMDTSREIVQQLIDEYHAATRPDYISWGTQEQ
UniProt P29401: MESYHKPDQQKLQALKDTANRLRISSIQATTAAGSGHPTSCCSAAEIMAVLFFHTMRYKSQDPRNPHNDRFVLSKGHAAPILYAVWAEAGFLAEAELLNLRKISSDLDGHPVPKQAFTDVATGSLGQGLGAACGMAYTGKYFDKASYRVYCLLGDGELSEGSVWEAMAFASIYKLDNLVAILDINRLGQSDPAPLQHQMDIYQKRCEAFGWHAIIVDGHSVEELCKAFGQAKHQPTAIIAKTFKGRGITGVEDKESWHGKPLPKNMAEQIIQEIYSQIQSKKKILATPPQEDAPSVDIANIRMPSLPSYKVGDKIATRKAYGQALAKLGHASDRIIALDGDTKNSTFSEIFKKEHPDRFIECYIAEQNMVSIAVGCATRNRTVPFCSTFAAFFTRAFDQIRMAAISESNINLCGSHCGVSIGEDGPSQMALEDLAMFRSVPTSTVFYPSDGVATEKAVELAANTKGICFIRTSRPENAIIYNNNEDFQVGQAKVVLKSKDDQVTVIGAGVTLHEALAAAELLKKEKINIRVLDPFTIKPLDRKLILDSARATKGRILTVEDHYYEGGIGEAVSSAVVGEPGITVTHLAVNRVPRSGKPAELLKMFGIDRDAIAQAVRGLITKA
UniProt P21333, whole entry, looked up: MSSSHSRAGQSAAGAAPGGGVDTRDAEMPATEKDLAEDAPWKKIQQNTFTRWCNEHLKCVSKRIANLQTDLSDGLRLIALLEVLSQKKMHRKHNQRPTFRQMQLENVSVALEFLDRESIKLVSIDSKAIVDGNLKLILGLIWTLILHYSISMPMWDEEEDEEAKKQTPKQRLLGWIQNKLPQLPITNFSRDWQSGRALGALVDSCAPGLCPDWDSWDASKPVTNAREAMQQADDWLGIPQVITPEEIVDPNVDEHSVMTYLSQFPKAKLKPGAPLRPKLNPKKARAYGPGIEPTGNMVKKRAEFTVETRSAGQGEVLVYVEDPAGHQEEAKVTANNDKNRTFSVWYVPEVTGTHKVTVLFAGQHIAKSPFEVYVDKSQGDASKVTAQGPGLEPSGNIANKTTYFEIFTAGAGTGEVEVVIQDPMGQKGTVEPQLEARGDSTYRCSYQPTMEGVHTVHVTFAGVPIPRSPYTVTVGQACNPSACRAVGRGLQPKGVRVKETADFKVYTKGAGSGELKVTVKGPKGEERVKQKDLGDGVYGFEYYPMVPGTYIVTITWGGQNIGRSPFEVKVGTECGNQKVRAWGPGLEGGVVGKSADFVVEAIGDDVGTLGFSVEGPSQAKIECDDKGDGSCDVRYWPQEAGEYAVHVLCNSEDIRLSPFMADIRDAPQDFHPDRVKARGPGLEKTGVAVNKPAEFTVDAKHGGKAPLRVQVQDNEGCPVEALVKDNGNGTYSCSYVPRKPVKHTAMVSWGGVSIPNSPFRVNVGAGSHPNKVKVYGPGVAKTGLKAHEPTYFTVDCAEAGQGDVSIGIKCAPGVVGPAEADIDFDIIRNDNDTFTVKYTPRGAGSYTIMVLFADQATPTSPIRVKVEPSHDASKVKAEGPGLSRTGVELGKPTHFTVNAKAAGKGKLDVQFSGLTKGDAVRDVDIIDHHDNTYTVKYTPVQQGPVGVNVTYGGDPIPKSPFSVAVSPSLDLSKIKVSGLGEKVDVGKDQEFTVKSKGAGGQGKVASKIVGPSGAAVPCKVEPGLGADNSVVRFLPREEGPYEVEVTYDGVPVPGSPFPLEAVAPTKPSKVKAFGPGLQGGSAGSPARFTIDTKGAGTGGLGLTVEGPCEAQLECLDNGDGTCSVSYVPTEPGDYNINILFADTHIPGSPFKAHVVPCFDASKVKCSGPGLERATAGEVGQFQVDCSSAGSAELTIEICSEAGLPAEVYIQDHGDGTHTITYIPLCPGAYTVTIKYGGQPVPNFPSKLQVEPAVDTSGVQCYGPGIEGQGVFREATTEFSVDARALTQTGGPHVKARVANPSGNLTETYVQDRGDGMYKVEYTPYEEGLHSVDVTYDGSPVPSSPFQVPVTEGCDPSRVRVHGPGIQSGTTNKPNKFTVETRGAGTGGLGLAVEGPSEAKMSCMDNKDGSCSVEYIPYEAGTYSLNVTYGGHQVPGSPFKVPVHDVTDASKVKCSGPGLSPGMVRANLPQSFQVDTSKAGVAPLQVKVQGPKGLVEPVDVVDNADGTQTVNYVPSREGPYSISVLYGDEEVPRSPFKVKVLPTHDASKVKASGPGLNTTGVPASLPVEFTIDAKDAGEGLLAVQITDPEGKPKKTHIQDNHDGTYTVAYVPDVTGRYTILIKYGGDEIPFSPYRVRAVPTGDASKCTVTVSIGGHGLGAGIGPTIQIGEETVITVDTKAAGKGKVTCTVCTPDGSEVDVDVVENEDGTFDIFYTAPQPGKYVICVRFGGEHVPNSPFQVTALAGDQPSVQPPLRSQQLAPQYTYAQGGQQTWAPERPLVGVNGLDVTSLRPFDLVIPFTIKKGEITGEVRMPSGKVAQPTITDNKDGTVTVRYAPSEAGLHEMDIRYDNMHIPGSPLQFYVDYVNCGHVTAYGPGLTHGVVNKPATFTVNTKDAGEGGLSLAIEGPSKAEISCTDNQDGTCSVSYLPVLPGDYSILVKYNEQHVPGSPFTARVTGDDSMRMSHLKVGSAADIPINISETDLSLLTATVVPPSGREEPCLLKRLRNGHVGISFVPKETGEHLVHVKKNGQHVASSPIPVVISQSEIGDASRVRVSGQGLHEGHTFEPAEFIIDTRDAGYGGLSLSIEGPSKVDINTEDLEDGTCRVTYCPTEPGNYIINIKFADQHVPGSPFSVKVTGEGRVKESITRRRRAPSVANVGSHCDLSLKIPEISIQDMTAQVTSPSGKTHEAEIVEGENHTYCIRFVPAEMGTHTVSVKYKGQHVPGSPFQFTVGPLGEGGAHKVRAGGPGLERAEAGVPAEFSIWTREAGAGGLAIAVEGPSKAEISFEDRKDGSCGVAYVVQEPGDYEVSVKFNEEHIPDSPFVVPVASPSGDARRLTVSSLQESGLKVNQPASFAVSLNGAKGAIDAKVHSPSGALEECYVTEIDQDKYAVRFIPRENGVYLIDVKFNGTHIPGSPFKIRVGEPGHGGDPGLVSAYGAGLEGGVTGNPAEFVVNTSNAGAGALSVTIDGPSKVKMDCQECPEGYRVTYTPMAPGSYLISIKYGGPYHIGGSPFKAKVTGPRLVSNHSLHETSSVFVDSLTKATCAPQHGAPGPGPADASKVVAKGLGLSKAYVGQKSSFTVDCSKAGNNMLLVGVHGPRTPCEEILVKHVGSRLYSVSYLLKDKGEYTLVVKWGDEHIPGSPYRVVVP
UniProt P25325: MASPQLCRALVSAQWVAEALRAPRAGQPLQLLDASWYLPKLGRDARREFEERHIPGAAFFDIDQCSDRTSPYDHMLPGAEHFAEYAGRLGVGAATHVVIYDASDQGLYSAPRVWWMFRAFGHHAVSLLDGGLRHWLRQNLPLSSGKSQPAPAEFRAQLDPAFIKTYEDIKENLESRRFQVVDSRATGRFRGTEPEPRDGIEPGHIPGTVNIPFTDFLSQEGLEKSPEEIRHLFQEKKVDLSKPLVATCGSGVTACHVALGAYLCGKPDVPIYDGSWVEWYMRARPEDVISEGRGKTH
UniProt P23246: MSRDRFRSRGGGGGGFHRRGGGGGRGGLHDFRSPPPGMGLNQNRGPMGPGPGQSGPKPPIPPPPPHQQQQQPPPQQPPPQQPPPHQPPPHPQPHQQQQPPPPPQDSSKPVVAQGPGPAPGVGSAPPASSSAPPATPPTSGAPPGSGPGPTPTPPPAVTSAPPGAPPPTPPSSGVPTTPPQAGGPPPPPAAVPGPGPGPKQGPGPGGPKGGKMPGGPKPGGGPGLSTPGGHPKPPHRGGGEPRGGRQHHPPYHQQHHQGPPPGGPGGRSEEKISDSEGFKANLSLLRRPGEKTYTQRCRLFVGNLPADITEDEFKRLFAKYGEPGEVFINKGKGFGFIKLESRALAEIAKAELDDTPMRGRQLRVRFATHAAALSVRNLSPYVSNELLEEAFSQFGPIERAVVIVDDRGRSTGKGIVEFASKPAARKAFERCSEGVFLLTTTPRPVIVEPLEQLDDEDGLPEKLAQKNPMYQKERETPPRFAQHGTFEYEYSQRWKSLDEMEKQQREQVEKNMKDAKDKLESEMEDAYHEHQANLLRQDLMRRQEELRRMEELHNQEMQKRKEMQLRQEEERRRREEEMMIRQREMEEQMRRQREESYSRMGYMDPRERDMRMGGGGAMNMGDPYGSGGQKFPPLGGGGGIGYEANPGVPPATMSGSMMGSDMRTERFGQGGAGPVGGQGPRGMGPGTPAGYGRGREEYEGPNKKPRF
UniProt P30041: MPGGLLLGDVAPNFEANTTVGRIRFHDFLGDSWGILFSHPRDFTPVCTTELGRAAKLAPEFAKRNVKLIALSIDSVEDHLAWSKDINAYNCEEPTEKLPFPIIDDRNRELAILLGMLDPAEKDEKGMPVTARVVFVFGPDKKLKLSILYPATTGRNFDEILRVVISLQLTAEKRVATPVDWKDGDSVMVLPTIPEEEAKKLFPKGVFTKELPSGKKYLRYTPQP
UniProt P29590: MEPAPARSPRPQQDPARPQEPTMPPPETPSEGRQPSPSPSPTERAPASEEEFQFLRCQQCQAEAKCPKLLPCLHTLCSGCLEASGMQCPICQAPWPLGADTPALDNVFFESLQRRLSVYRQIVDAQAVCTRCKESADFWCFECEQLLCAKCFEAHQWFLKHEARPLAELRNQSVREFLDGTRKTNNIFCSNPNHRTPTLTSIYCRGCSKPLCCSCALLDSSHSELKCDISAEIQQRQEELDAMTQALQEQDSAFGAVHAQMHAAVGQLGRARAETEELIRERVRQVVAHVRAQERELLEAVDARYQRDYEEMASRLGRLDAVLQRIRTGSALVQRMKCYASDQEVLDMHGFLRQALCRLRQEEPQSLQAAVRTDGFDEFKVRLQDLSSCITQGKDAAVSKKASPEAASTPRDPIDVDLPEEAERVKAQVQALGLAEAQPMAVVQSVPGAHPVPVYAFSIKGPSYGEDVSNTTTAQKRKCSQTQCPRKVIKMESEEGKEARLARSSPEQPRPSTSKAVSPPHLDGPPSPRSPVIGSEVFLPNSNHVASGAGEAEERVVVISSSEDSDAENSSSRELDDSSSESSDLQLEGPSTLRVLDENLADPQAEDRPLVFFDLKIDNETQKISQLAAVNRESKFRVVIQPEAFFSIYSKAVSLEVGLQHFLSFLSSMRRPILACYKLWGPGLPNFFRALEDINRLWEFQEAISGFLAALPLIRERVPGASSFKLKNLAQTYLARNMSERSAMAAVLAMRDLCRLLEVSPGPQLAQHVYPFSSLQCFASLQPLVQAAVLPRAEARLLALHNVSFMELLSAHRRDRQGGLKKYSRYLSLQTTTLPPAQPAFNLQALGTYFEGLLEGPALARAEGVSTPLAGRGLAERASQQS
UniProt P17844: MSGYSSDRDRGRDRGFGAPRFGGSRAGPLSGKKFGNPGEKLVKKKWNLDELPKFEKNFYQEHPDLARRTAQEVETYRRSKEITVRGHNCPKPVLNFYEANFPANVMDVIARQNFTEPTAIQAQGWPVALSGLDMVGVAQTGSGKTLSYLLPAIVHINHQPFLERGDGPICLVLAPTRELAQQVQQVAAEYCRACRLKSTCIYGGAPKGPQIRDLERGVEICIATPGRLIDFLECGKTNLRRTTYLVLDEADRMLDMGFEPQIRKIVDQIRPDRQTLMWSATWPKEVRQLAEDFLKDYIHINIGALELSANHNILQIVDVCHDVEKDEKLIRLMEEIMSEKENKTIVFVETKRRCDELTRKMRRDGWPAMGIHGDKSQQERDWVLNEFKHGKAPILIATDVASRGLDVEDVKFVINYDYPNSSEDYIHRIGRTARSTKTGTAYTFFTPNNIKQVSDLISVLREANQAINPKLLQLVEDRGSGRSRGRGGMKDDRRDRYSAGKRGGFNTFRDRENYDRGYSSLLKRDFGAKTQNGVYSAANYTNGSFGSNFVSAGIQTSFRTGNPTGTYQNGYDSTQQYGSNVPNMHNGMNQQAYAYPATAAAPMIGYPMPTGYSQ
UniProt P22392, whole entry: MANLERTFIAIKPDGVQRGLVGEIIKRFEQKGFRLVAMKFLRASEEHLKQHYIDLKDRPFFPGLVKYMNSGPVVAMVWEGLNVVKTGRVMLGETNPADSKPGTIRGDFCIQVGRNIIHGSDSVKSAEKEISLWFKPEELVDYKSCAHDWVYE

The targets with a hit were mostly taken out for another list; the other results follow. The data scatter; read single values as rough. The entries are a selection whose mix differs from that of the whole data set.

Compound in this experiment: COC(=O)/C=C/c1ccccc1 [methyl cinnamate]
Kind of experiment: log2 ratio of iodoacetamide-alkyne labeling of the cysteine site, DMSO over compound (competition); higher = stronger covalent engagement of the cysteine by the compound, active = 1 or more. Particulars: 500 µM; treatment time 1 h; system: HEK293T cell lysate. The method, boiled down:
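Electrophile (500 µM) or vehicle was added to HEK293T lysate (2 mg/mL) for 1 h at ambient temperature before iodoacetamide alkyne labelling (1 h) and click coupling to sCIP-TMT reagents. After pooling, overnight trypsin digestion at 37 °C, streptavidin enrichment and acid elution, peptides were measured by Orbitrap Eclipse LC-MS/MS with FAIMS and quantified in FragPipe. Each cysteine's log2 competition ratio compares mean control-channel with mean compound-channel reporter intensity, control over compound. Data came from duplicate channels across three replicates, excluding cysteines quantified in only one replicate.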
For IMPDH1 C215 (UniProt P20839), the “log2 ratio of iodoacetamide-alkyne labeling” value (shortened to “log2 ratio”) is inactive: 0.2.

As to CAD C379 (UniProt P27708), the “log2 ratio” value was inactive: 0.0935.

On to VARS C917 (UniProt P26640), for which the “log2 ratio” value was inactive: 0.0822.

Take TUBG1 C316 (UniProt P23258): the “log2 ratio” value was inactive: -0.0762.

For the target SCP2 C94 (UniProt P22307), the “log2 ratio” value was inactive: -0.0672.

As for RPL17 C15 (UniProt P18621), the “log2 ratio” value is inactive: 0.161.

Consider TKT C41 (UniProt P29401), for which the “log2 ratio” value is inactive: -0.171.

In the case of TCP1 C385 (UniProt P17987), the “log2 ratio” value is inactive: -0.0104.

As for APC C1502 (UniProt P25054), the “log2 ratio” value was inactive: 0.312.

With EEF1G C266 (UniProt P26641), the “log2 ratio” value was inactive: 0.339.

For the target COMT C145 (UniProt P21964), the “log2 ratio” value is inactive: 0.0785.

As for POLD1 C837 (UniProt P28340), the “log2 ratio” value is inactive: 0.278.

Turning to FLNA C796 (UniProt P21333), the “log2 ratio” value is inactive: -0.207.

Turning to MPST C7 (UniProt P25325), the “log2 ratio” value was inactive: 0.432.

For the target SFPQ C297 (UniProt P23246), the “log2 ratio” value is inactive: -0.204.

Take RPS3 C119 (UniProt P23396): the “log2 ratio” value is inactive: 0.181.

On to ECHS1 C225 (UniProt P30084), for which the “log2 ratio” value was inactive: -0.052.

Consider MCM3 C319 (UniProt P25205), for which the “log2 ratio” value is inactive: 0.0663.

For the target MCM3 C360 (UniProt P25205), the “log2 ratio” value is inactive: 0.128.

For the target PAICS C374 (UniProt P22234), the “log2 ratio” value is inactive: -0.29.

Regarding HK1 C813 (UniProt P19367), the “log2 ratio” value was inactive: 0.171.

YWHAQ C25 (UniProt P27348): the “log2 ratio” value was inactive: 0.0798.

With PRDX6 C91 (UniProt P30041), the “log2 ratio” value was inactive: 0.18.

For FLNA C1997 (UniProt P21333), the “log2 ratio” value was inactive: 0.0016.

As for UniProt P26639_C630, the “log2 ratio” value is inactive: 0.251.

For MPG C56 (UniProt P29372), the “log2 ratio” value is inactive: 0.446.

UniProt P25398_C130: the “log2 ratio” value is inactive: 0.355.

UniProt P25398_C69: the “log2 ratio” value was inactive: 0.0223.

For PSMC3 C240 (UniProt P17980), the “log2 ratio” value was inactive: 0.332.

Turning to UBA1 C413 (UniProt P22314), the “log2 ratio” value is inactive: -0.0231.

As to SCP2 C71 (UniProt P22307), the “log2 ratio” value was inactive: 0.0153.

In the case of EEF1G C68 (UniProt P26641), the “log2 ratio” value is inactive: 0.14.

ATP6V1B2 C207 (UniProt P21281): the “log2 ratio” value is inactive: 0.14.

For PML C60 (UniProt P29590), the “log2 ratio” value was inactive: 0.173.

For the target FLNA C1912 (UniProt P21333), the “log2 ratio” value was inactive: 0.133.

Regarding DDX5 C89 (UniProt P17844), the “log2 ratio” value was inactive: -0.21.

As for NME2 C145 (UniProt P22392), the “log2 ratio” value is inactive: 0.00509.
